Laboratory results reported in US20230287070A1, “NOVEL TUMOR-SPECIFIC ANTIGENS FOR ACUTE MYELOID LEUKEMIA (AML) AND USES THEREOF” (UNIVERSITE DE MONTREAL, priority 2020, published 2023).

Test system: AML specimens vs MPCs
Assay: Fold change of RNA expression between AML specimens and MPCs
Design: species or system human

Row | Sequence | AML/MPC
1 | LNHLRTSI (listed as Homo sapiens) | 0.2756
2 | LPIASASLL (listed as Homo sapiens) | 0.9415
3 | LPRNKPLL (listed as Homo sapiens) | 6.213
4 | LPSFSHFLLL (listed as Homo sapiens) | 2.751
5 | LPSFSRPSGII (listed as Homo sapiens) | 2.059
6 | LPSHSLLI (listed as Homo sapiens) | 2.068
7 | LRKAVDPIL (listed as Homo sapiens) | 3.901
8 | LRSQILSY (listed as Homo sapiens) | 33.63
9 | LSASHLSSL (listed as Homo sapiens) | 2.204
10 | LSDRQLSL (listed as Homo sapiens) | 1.037
11 | LSHPAPSSL (listed as Homo sapiens) | 2.061
12 | LSSRLPLGK (listed as Homo sapiens) | 3.016
13 | LSTGHLSTV (listed as Homo sapiens) | 45.7274
14 | LSWGYFLFK (listed as Homo sapiens) | 2.097
15 | LTDRIYLTL (listed as Homo sapiens) | 203.504
16 | LTSISIRPV (listed as Homo sapiens) | 1.503
17 | LTVPLSVFW (listed as Homo sapiens) | 1.193
18 | LYFLGHGSI (listed as Homo sapiens) | 0.2549
19 | LYIKSLPAL (listed as Homo sapiens) | 19.06
20 | LYPSKLTHF (listed as Homo sapiens) | 5.628
21 | MIGIKRLL (listed as Homo sapiens) | 2.454
22 | NFCMLHQSI (listed as Homo sapiens) | 0.5484
23 | NILKKTVL (listed as Homo sapiens) | 0.9955
24 | NLKEKKALF (listed as Homo sapiens) | 8.968
25 | NLKKREIL (listed as Homo sapiens) | 1.722

Row | Sequence | AML/MPC
26 | NPKLKDIL (listed as Homo sapiens) | 1.979
27 | NPLQLSLSI (listed as Homo sapiens) | 0.4889
28 | NQKKVRIL (listed as Homo sapiens) | 0.4568
29 | NTSHLPLIY (listed as Homo sapiens) | 405.694
30 | NVNRPLTMK (listed as Homo sapiens) | 12.37
31 | NVSSHVHTV (listed as Homo sapiens) | 7.343
32 | PAPPHPAAL (listed as Homo sapiens) | 13.05
33 | PARPAGPL (listed as Homo sapiens) | 0.831
34 | PFPLVQVEPV (listed as Homo sapiens) | 0.4064
35 | PLPIVPAL (listed as Homo sapiens) | 0.6021
36 | PPRPLGAQV (listed as Homo sapiens) | 14.35
37 | PRGFLSAL (listed as Homo sapiens) | 4.511
38 | QIKTKLLGSL (listed as Homo sapiens) | 1.405
39 | REPYELTVPAL (listed as Homo sapiens) | 8.664
40 | RLEVRKVIL (listed as Homo sapiens) | 0.6197
41 | RLVSSTLLQK (listed as Homo sapiens) | 1.091
42 | RMVAYLQQL (listed as Homo sapiens) | 1.996
43 | RPRGPRTAP (listed as Homo sapiens) | 29.95
44 | RQISVQASL (listed as Homo sapiens) | 0.1431
45 | RSASSATQVHK (listed as Homo sapiens) | 21.15
46 | RTPKNYQHW (listed as Homo sapiens) | 53.72
47 | RTQITKVSLKK (listed as Homo sapiens) | 2051.04
48 | RYLANKIHI (listed as Homo sapiens) | 64.5122
49 | SASSATQVHK (listed as Homo sapiens) | 22.05
50 | SEAEAAKNAL (listed as Homo sapiens) | 15.85

Row | Sequence | AML/MPC
51 | SGKLRVAL (listed as Homo sapiens) | 277.184
52 | SIQRNLSL (listed as Homo sapiens) | 19.19
53 | SLDLLPLSI (listed as Homo sapiens) | 17.24
54 | SLLIIPKKK (listed as Homo sapiens) | 5.216
55 | SLLSGLLRA (listed as Homo sapiens) | 308.14
56 | SLQILVSSL (listed as Homo sapiens) | 6.71
57 | SLREPQPAL (listed as Homo sapiens) | 69.21
58 | SLWGQPAEA (listed as Homo sapiens) | 249.8
59 | SNLIRTGSH (listed as Homo sapiens) | 0.8344
60 | SPADHRGYASL (listed as Homo sapiens) | 28.51
61 | SPARALPSL (listed as Homo sapiens) | 1.404
62 | SPQSAAAEL (listed as Homo sapiens) | 59.62
63 | SPQSGPAL (listed as Homo sapiens) | 0.5407
64 | SPVVHQSL (listed as Homo sapiens) | 52.98
65 | SPVVRVGL (listed as Homo sapiens) | 22.15
66 | SPYRTPVL (listed as Homo sapiens) | 8.928
67 | SRIHLVVL (listed as Homo sapiens) | 60.2848
68 | SSSPVRGPSV (listed as Homo sapiens) | 113.1364
69 | STFSLYLKK (listed as Homo sapiens) | 98.973
70 | SVFAGVVGV (listed as Homo sapiens) | 8.7
71 | SVQLLEQAIHK (listed as Homo sapiens) | 56.53
72 | SVYKYLKAK (listed as Homo sapiens) | 8068.72
73 | SYSPAHARL (listed as Homo sapiens) | 8.837
74 | THGSEQLHL (listed as Homo sapiens) | 3.293
75 | TILPRILTL (listed as Homo sapiens) | 0.6039

Row | Sequence | AML/MPC
76 | TISECPLLI (listed as Homo sapiens) | 1.644
77 | TLKLKKIFF (listed as Homo sapiens) | 2.527
78 | TLNQGINVYI (listed as Homo sapiens) | 9.544
79 | TLRSPGSSL (listed as Homo sapiens) | 11.27
80 | TPGRSTQAI (listed as Homo sapiens) | 8.315
81 | TQAPPNVVL (listed as Homo sapiens) | 11.86
82 | TQVSMAESI (listed as Homo sapiens) | 0.7599
83 | TSRLPKIQK (listed as Homo sapiens) | 0.5367
84 | TVEEYLVNI (listed as Homo sapiens) | 1.912
85 | TVIRIAIVNK (listed as Homo sapiens) | 43568.4
86 | TVPGIQRY (listed as Homo sapiens) | 1.304
87 | TVRGDVSSL (listed as Homo sapiens) | 9.689
88 | VILIPLPPK (listed as Homo sapiens) | 0.2623
89 | VLKEKNASL (listed as Homo sapiens) | 75.9224
90 | VLVPYEPPQV (listed as Homo sapiens) | 641.852
91 | VPAPAQAI (listed as Homo sapiens) | 0.08564
92 | VSFPDVRKV (listed as Homo sapiens) | 9.648
93 | VSRNYVLLI (listed as Homo sapiens) | 4.908
94 | VTDLLALTV (listed as Homo sapiens) | 10.81
95 | VTFKLSLF (listed as Homo sapiens) | 0.89
96 | VVFDKSDLAKY (listed as Homo sapiens) | 9.216
97 | VVFPFPVNK (listed as Homo sapiens) | 1449.166
98 | YSHHSGLEY (listed as Homo sapiens) | 91.17
99 | YYLDWIHHY (listed as Homo sapiens) | 21.44
